No constants are given. Whether binding was seen depends on the method and setting. For some assays here: In cells and extracts the contact can be indirect. Some binding calls cover weakened binding; strength is not graded here. Sequences can lack the tags named with a protein.
B1: CaM9, nYFP-tagged (protein, UniProt Q9S744 1-151)
chain: MADAFTDEQIQEFYEAFCLIDKDSDGFITKEKLTKVMKSMGKNPKAEQLQQMMSDVDIFGNGGITFDDFLYIMAQNTSQESASDELIEVFRVFDRDGDGLISQLELGEGMKDMGMKITAEEAEHMVREADLDGDGFLSFHEFSKMMIAASY
B2: CML10, nYFP-tagged (protein, UniProt P30187 1-191)
chain: MANKFTRQQISEFREQFSVYDKNGDGHITTEEFGAVMRSLGLNLTQAELQEEINDSDLDGDGTINFTEFLCAMAKDTYSEKDLKKDFRLFDIDKNGFISAAEMRYVRTILRWKQTDEEIDEIIKAADVDGDGQINYREFARLMMAKNQGHDTKYDTTGGTLERDLAAGVAKNIIAAPMTDFIKNLFEALFS
B3: CRK21, nYFP-tagged (protein, UniProt Q3E9X6 25-690)
chain: APTCIQRSDFFKANGPYDINLRAMLSSLPSRVKDNEGFYKTPFKPGPNIAHGLGMCSRGTTTQDCSDCITSVSHTLLHTCPNQAEAIDWSSGDSLCLVRYSNHLINGSLDEDIIWAEYIEYKYNTSFGQTNLTEFKSTWQALMDRVINKVDGSLYANSIQELGSFPFRSIYAIAQCNKDLTKLNCEKCLQHLRIDNRSCCRGIQVGYIARTSCFMRWDLQPFLGLFINGMLPTPPSELDNGHSNTTKKDGKNISTGSIVAIAVVSVVVSTVLLALGYAVSRRRKAYQSFASENGYFSVSRRPRRPYGTASPDDATDDLTASSGSLRFDFRAIKAATSNFHKSNKLGHGGFGAVYKGMFPNGTEVAAKRLSKPSDQGEPEFKNEVLLVARLQHKNLVGLLGFSVEGEEKILVYEFVPNKSLDHFLFDPIKRVQLDWPRRHNIIEGITRGILYLHQDSRLTIIHRDLKASNILLDAEMNPKIADFGLARNFRVNQTEANTGRVVGTFGYMPPEYVANGQFSTKSDVYSFGVLILEIIGGKKNSSFHQIDGSVSNLVTHVWRLRNNGSLLELVDPAIGENYDKDEVIRCIHIGLLCVQENPDDRPSMSTIFRMLTNVSITLPVPQPPGFFFRERSEPNPLAERLLPGPSTSMSFTCSVDDASITSVRPR
B4: CRK12, nYFP-tagged (protein, UniProt O65472 19-659)
chain: LQTLPCINTTYFIPNSTYDTNRRVILSLLPSNVTSHFGFFNGSIGQAPNRVYAVGMCLPGTEEESCIGCLLSASNTLLETCLTEENALIWIANRTICMIRYSDTSFVGSFELEPHREFLSIHGYKTNETEFNTVWSRLTQRMVQEASSSTDATWSGAKYYTADVAALPDSQTLYAMMQCTPDLSPAECNLCLTESVVNYQSCCLGRQGGSIVRLSCAFRAELYPFGGAFTVMTARPLSQPPPSLIKKDSGKFSTETIAAIVVPIIVVAIIFLVLLVLSRLFARRRKSYQEIDLDQSGITTLHFQQLDFKTIEVATENFAKTNKLGQGGFGEVYKGTLVNGTEVAVKRLSKTSEQGAQEFKNEVVLVAKLQHRNLVKLLGYCLEPEEKILVYEFVPNKSLDYFLFDPTKQGQLDWTKRYNIIGGITRGILYLHQDSRLTIIHRDLKASNILLDADMIPKIADFGMARISGIDQSVANTKRIAGTFGYMPPEYVIHGQFSMKSDVYSFGVLILEIICGKKNRSFYQADTKAENLVTYVWRLWTNGSPLELVDLTISENCQTEEVIRCIHIALLCVQEDPKDRPNLSTIMMMLTNSSLILSVPQPPGFFVPQNKERDSFLSSQFTMGCTSQTKNDVTITNLDPR
B5: CRK14, nYFP-tagged (protein, UniProt Q8H199 23-658)
chain: QECGKTGFFVPQSRYETNRGLLLSSLPSNVSARGGFYNSSIGQGPDRVYALGMCIEGAEPDVCSDCIEYASNLLLDTCLNQTEGLAWPEKRILCMVRYSNSSFFGSLKAEPHFYIHNVDDITSNLTEFDQVWEELARRMIASTTSPSSKRKYYAADVAALTAFQIIYALMQCTPDLSLEDCHICLRQSVGDYETCCNGKQGGIVYRASCVFRWELFPFSEAFSRISLAPPPQSPAFPTLPAVTNTATKKGSITISIGIVWAIIIPTVIVVFLVLLALGFVVYRRRKSYQGSSTDITITHSLQFDFKAIEDATNKFSESNIIGRGGFGEVFMGVLNGTEVAIKRLSKASRQGAREFKNEVVVVAKLHHRNLVKLLGFCLEGEEKILVYEFVPNKSLDYFLFDPTKQGQLDWTKRYNIIRGITRGILYLHQDSRLTIIHRDLKASNILLDADMNPKIADFGMARIFGIDQSGANTKKIAGTRGYMPPEYVRQGQFSTRSDVYSFGVLVLEIICGRNNRFIHQSDTTVENLVTYAWRLWRNDSPLELVDPTISENCETEEVTRCIHIALLCVQHNPTDRPSLSTINMMLINNSYVLPDPQQPGFFFPIISNQERDGLDSMNRSNPQTINDVTITDFEPR
B6: CRK16, nYFP-tagged (protein, UniProt O65476 27-662)
chain: QKCGKTGLFKPNDKYDINRHLLLSSLASNVSARGGFYNASIGQGPDRLYASGTCIQGSEPELCSACIDSAFIRVIKKCHNQTEALDWSSFNEEYPCMIRYSNRSFFGLLEMTPFFKNYNATDFQVNLTEFYQKWEALMLGVIADAISSPNPKFYGAGTGKIGIQTVYAFVLCSKDISPWNCSRCLRGNVDNYKLSCSGKPRGHSFSPSCYMRWDLYQFYGFIEYRASPTLPREKGRISELSDDGGKISTRNILGITVALAFFITVLLVLGYALSRRRKAYQEFATENDITTSGSLQFDFKAIEAATNNFQKSNKLGHGGFGEVFKGTFPNGTEVAVKRLSKISGQGEEEFKNEVLLVAKLQHRNLVRLLGFSVEGEEKILVYEYMPNKSLDYFLFDHRRRGQLDWRTRYNIIRGVTRGILYLHQDSRLTIIHRDLKAGNILLDVDMNPKIADFGVARNFRVDQTEATTGRVVGTFGYMPPEYVANGQFSMKSDVYSFGVLILEIIVGKKSSSFHEIDGSVGNLVTYVWRLWNNESFLELVDPAMGESYDKDEVIRCIHISLLCVQENPADRPTMSTVFQMLTNTFLTLPVPQLPGFVFRVRSEPNPLAERLEPGPSTTMSFACSIDDASITSVDLR
B7: CRK24, nYFP-tagged (protein, UniProt O65483 21-636)
chain: QVCLERSGFFTPNSTYDLNRRVLLSSLPLNVTAIDGFYTTWIGEHPNRAYGLGMCVPGTDAHSCSDCIILANARLLQNCTNQTEAIVWRIDRTVCLVRYSNRSFYSSLGMEILRSDNYTRDFQANLTDLEITWEALMIRMIDQASYLYYAAGIRKLETSISRIYGFVQCSRDLSLQNCTKCLQQNVVEYRSCCRGRQGGIILRPSCFIRWELYPFLGLFDNIRPRQKDGKSISTGAIVAIIVVPILLLALGVGLWKRRKAYKTKTTKIADDITTSGSLQFEFKAIEAATCNFHNVNKLGHGGFGEVYKGTFPNGTEVAVKRLSKTSGQGEEEFKNEVFLVAKLQHRNLVKLLGYAVKGDEKILVYEFLPNKSLDHFLFDPVKKGQLDWTRRYNIINGITRGIVYLHQDSRLTIIHRDLKAGNILLDADMNPKIVDFGVARNFRVDQTEATTARVVGTIGYMPPEYVTNGQFSTKSDVYSFGVLILEIIGGKKNSSINETDGSISNLVTYVWRLWNNEPLLELVDAPMGENYDRNEVIRCIHIGLLCVQENPADRPTMSTVFHMLTNTSITLHVPQPPGFVFRVRFKPNPLADRLQRGPSTSMSFSCSVSVTCVSPR
B8: CRK30, nYFP-tagged (protein, UniProt Q9LDT0 25-700)
chain: QLCSEKFGTFTPGGTFDKNRRIILSSLPSEVTAQDGFYNASIGTDPDQLYAMGMCIPGAKQKLCRDCIMDVTRQLIQTCPNQTAAIHWSGGGKTVCMARYYNQPSSRPLDLESVSIGYNVGNLSTNLTDFDRLWERLIAHMVTKASSASIKYLSFDNSRFYAADETNLTNSQMVYALMQCTPDVSPSNCNTCLKQSVDDYVGCCHGKQGGYVYRPSCIFRWDLYPFNGAFDLLTLAPPPSSQLQSPPPVTNKDEKTIHTGTIIGIVIVVAMVIIMALLALGVSVCRSRKKYQAFASETADDITTVGYLQFDIKDIEAATSNFLASNKIGQGGFGEVYKGTLSNGTEVAVKRLSRTSDQGELEFKNEVLLVAKLQHRNLVRLLGFALQGEEKILVFEFVPNKSLDYFLFGSTNPTKKGQLDWTRRYNIIGGITRGLLYLHQDSRLTIIHRDIKASNILLDADMNPKIADFGMARNFRDHQTEDSTGRVVGTFGYMPPEYVAHGQFSTKSDVYSFGVLILEIVSGRKNSSFYQMDGSVCNLVTYVWRLWNTDSSLELVDPAISGSYEKDEVTRCIHIGLLCVQENPVNRPALSTIFQMLTNSSITLNVPQPPGFFFRNRPESDTLRRGLEPDQYNNESVTCSIDNATITTLLGKTLASALCCITSTLFSKSMYRNTED
B9: CRK33, nYFP-tagged (protein, UniProt Q9LDN1 26-636)
chain: QQCNETGYFEPWKTYDTNRRQILTSLASKVVDHYGFYNSSIGKVPDEVHVMGMCIDGTEPTVCSDCLKVAADQLQENCPNQTEAYTWTPHKTLCFARYSNSSFFKRVGLHPLYMEHSNVDIKSNLTYLNTIWEALTDRLMSDASSDYNASLSSRRYYAANVTNLTNFQNIYALMLCTPDLEKGACHNCLEKAVSEYGNLRMQRGIVAWPSCCFRWDLYPFIGAFNLTLSPPPGSKRNISVGFFVAIVVATGVVISVLSTLVVVLVCRKRKTDPPEESPKYSLQYDLKTIEAATCTFSKCNMLGQGGFGEVFKGVLQDGSEIAVKRLSKESAQGVQEFQNETSLVAKLQHRNLVGVLGFCMEGEEKILVYEFVPNKSLDQFLFEPTKKGQLDWAKRYKIIVGTARGILYLHHDSPLKIIHRDLKASNILLDAEMEPKVADFGMARIFRVDQSRADTRRVVGTHGYISPEYLMHGQFSVKSDVYSFGVLVLEIISGKRNSNFHETDESGKNLVTYAWRHWRNGSPLELVDSELEKNYQSNEVFRCIHIALLCVQNDPEQRPNLSTIIMMLTSNSITLPVPQSPVYEGMDMFLPSIKSLPGSVNDSLIDDLVPR
B10: CaM9 fused to the GAL4-activating domain (protein, UniProt Q9S744 1-151)
chain: B1 chain
B11: CML10 fused to the GAL4-activating domain (protein, UniProt P30187 1-191)
chain: B2 chain

target: T1, MKKK20-cYFP (Arabidopsis thaliana) (UniProt Q9SND6); test: split reporter
T1 sequence: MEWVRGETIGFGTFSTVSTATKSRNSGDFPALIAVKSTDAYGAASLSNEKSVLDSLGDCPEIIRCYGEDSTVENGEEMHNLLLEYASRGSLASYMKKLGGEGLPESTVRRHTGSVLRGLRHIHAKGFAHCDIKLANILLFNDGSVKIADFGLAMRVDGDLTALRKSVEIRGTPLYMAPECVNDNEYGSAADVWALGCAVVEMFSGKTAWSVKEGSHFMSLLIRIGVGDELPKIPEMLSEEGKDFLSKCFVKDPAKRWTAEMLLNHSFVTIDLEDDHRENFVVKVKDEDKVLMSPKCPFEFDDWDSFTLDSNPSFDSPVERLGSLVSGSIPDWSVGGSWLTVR

Question: B1 was tested. Which binding did it give?
Answer: The binding was “binds”.

Question: For B2, which binding is on record?
Answer: The binding was “binds”.

Question: How did the binding turn out when B3 was run?
Answer: Its binding is “binds”.

Question: How did the binding turn out when B4 was run?
Answer: The binding was “binds”.

Question: With B5 as the binder, how does the binding read?
Answer: Its binding is “binds”.

Question: How did the binding turn out when B6 was run?
Answer: Its binding is “binds”.

Question: How did the binding turn out when B7 was run?
Answer: The binding was “binds”.

Question: How did the binding turn out when B8 was run?
Answer: Its binding is “binds”.

Question: B9 was tested. Which binding did it give?
Answer: The binding was “binds”.

target: T2, MKKK20 fused to the GAL4 DNA-binding domain (BD-MKKK20) (Arabidopsis thaliana) (UniProt Q9SND6); test: two-hybrid
T2 sequence: T1 sequence

Question: With B10 as the binder, how does the binding read?
Answer: Its binding is “binds”.

Question: Which binding does the source give for B11 here?
Answer: Its binding is “binds”.

From publication doi:10.1101/2022.03.27.486008
